Our source for the binding values is PMC7199855, “GRAF2, WDR44, and MICAL1 mediate Rab8/10/11–dependent export of E-cadherin, MMP14, and CFTR ΔF508” (The Journal of Cell Biology, 2020).

Common to all, as to test: co-IP; transfected 293T, IP with α-myc–coated magnetic beads; 20 mM Hepes pH 7.4, 150 mM NaCl, 2 mM EDTA, 1% IGEPAL CA-630; Western blot
The target of one test is T1, myc-MICAL1^tail (human) (UniProt Q8TDZ2).
T1 sequence: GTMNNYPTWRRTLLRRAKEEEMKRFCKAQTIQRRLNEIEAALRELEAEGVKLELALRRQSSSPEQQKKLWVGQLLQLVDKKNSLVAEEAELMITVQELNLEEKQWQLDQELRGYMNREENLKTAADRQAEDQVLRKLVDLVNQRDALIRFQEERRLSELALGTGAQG

A further test concerns the target T2, myc-MICAL1 PPAPP (human) (UniProt Q8TDZ2).
T2 sequence: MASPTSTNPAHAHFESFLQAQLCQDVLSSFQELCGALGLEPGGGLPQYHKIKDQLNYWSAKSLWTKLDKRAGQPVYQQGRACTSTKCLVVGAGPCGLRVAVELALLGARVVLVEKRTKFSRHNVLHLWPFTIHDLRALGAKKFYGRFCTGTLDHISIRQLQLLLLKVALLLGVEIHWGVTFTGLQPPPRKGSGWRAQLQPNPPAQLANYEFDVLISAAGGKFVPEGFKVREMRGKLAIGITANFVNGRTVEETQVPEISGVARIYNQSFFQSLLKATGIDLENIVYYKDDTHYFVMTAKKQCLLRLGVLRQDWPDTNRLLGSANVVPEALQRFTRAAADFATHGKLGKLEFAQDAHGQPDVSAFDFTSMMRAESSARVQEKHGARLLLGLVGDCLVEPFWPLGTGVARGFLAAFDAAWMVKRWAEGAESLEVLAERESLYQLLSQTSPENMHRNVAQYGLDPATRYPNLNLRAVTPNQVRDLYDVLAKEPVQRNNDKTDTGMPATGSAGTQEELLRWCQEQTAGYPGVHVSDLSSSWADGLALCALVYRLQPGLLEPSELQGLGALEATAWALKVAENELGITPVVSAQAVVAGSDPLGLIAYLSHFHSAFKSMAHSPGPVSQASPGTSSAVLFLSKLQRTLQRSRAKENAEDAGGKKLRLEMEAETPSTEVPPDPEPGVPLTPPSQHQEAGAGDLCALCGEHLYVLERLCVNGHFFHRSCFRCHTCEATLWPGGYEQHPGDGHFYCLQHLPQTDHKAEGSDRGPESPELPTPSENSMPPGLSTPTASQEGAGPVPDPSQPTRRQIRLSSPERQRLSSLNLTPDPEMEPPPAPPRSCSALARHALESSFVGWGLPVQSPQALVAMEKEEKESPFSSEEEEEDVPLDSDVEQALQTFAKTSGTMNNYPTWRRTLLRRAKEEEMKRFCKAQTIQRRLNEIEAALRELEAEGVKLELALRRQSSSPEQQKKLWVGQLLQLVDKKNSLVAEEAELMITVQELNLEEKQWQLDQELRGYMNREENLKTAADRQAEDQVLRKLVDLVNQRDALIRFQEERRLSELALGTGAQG

A further test concerns the target T3, myc-MICAL1^Pro (human) (UniProt Q8TDZ2).
T3 sequence: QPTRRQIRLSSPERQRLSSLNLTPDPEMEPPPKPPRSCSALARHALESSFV

In a further test the target is T4, myc-MICAL1 (human) (UniProt Q8TDZ2).
T4 sequence: T2 sequence with A832K

Residue numbers refer to the chain shown, from its start. No constants are given. Whether binding was seen depends on the method and setting. In cells and extracts the contact can be indirect. Some entries that bind do so weakly or less than the wild type. Where a sequence is shown, tags or fusion partners need not be part of it.

B1: GRAF1b-GFP (protein, UniProt Q9UNA1-2 1-759)
chain: MGLPALEFSDCCLDSPHFRETLKSHEAELDKTNKFIKELIKDGKSLISALKNLSSAKRKFADSLNEFKFQCIGDAETDDEMCIARSLQEFATVLRNLEDERIRMIENASEVLITPLEKFRKEQIGAAKEAKKKYDKETEKYCGILEKHLNLSSKKKESQLQEADSQVDLVRQHFYEVSLEYVFKVQEVQERKMFEFVEPLLAFLQGLFTFYHHGYELAKDFGDFKTQLTISIQNTRNRFEGTRSEVESLMKKMKENPLEHKTISPYTMEGYLYVQEKRHFGTSWVKHYCTYQRDSKQITMVPFDQKSGGKGGEDESVILKSCTRRKTDSIEKRFCFDVEAVDRPGVITMQALSEEDRRLWMEAMDGREPVYNSNKDSQSEGTAQLDSIGFSIIRKCIHAVETRGINEQGLYRIVGVNSRVQKLLSVLMDPKTASETETDICAEWEIKTITSALKTYLRMLPGPLMMYQFQRSFIKAAKLENQESRVSEIHSLVHRLPEKNRQMLQLLMNHLANVANNHKQNLMTVANLGVVFGPTLLRPQEETVAAIMDIKFQNIVIEILIENHEKIFNTVPDMPLTNAQLHLSRKKSSDSKPPSCSERPLTLFHTVQSTEKQEQRNSIINSSLESVSSNPNSILNSSSSLQPNMNSSDPDLAVVKPTRPNSLPPNPSPTSPLSPSWPMFSAPSSPMPTSSTSSDSSPVSTPFRKAKALYACKAEHDSELSFTAGTVFDNVHPSQEPGWLEGTLNGKTGLIPENYVEFL
On to B1, for which the binding result with myc-MICAL1^tail (human) was “no binding”; with myc-MICAL1 PPAPP (human), “no binding”; with myc-MICAL1^Pro (human), “binds”; in the test with myc-MICAL1 (human), “binds”.
